Details: TSK-Gel HA 1000 HPLC column; linear gradient 10 mM to 500 mM sodium phosphate, 0.15 N NaCl, pH 6.8; corrected using two reference compounds
Description: Hydroxyapatite is the principal mineral component of bone. Hydroxyapatite adsorption chromatography is used as an assay to evaluate the bone-targeting potential of both individual bone-targeting moieties (“monomers”) and of pharmaceuticals incorporating bone-targeting groups.
This K value is corrected using two reference compounds to correct from inter-column and inter-system variation to obtain a K′ value.
Reference Compounds: K′ values were determined for known bone targeted compounds, the bisphosphonate, alendronate and tetracycline.

- K′ value (corrected hydroxyapatite retention, K=(retention time-void time)/void): 3.7
SMILES: NCCCC(O)(P(=O)(O)O)P(=O)(O)O [Alendronate, alendronate]

— patent US6960572B2, “Indolinones and uses thereof” (Ariad Pharmaceuticals, Inc., priority 2001, dated 2005)
